PubChem BioAssay AID1671195 – Yale University – 2021
Aim: 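Genes whose knockdown alters LDL uptake in liver cancer cells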 (primary screen). Cell system: human Huh7 hepatoma cells. Knock-down reagent: siRNA pool against human genes, 18 nM. Time to read-out: about 2 to 2.5 days of knockdown, then 8 h LDL uptake. Treatment: DiI-labelled LDL at 30 µg/ml for 8 h, in lipoprotein-deficient serum medium. Measurement: 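Per-cell DiI-LDL intensity by automated imaging; well means scaled to the plate median and given as a robust z-score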. Scale: robust z-score: higher = more LDL uptake after knockdown. Active means: 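Active when two or more replicates show a robust z-score above 2 or below -2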.
This is one part, drawn at random, of about 22,000 reagents. About 1,510 of them (6.9%) count as active. 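Active includes knockdowns raising or lowering LDL uptake; positive z-scores mean more uptake, negative mean less.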 A number with no mark means an inactive call.

| target | PubChem SID | robust z-score, replicate 1 | robust z-score, replicate 2 | robust z-score, replicate 3 |
| --- | --- | --- | --- | --- |
| SUPT5H (GeneID 6829) | SID442898707 | -0.431 | -0.563 | -0.591 |
| LOC400614 (retired record) (GeneID 400614) | SID442898056 | -0.646 | -0.327 | -0.399 |
| PLBD2 (GeneID 196463) | SID442897991 | -0.68 | -1.08 | 0.42 |
| UTS2B (GeneID 257313) | SID442895248 | -0.0654 | 0.0626 | -0.447 |
| AGBL1 (GeneID 123624) | SID442886924 | 1.1 | 0.523 | 1.46 |
| CPLX1 (GeneID 10815) | SID442895395 | -0.485 | -0.106 | 0.096 |
| SMARCAL1 (GeneID 50485) | SID442901777 | -0.749 | -1.05 | -1.07 |
| MIX23 (GeneID 131076) | SID442884325 | -2.18 (active) | -2.1 | -1.57 |
| EFHB (GeneID 151651) | SID442894654 | -0.0808 | 0.00769 | -0.189 |
| LOC388853 (retired record) (GeneID 388853) | SID442886216 | 0.831 | 1.46 | 1.4 |
| LOC401893 (retired record) (GeneID 401893) | SID442888754 | 0.356 | 0.477 | 1.17 |
| NTNG1 (GeneID 22854) | SID442897760 | -0.604 | -0.252 | -0.409 |
| FOXR2 (GeneID 139628) | SID442903101 | -1.17 | -1.4 | -1.08 |
| MKRN3 (GeneID 7681) | SID442884831 | 1.91 | 1.89 | 1.75 |
| NSMCE4A (GeneID 54780) | SID442896918 | -0.666 | -0.323 | 0.00893 |
| KIFC3 (GeneID 3801) | SID442902680 | -0.712 | -1.42 | -1.25 |
| LYPD6 (GeneID 130574) | SID442899411 | -0.582 | -0.851 | -0.417 |
| SLC6A14 (GeneID 11254) | SID442898546 | -0.294 | -0.374 | -0.865 |
| ARK2C (GeneID 494470) | SID442890853 | 0.384 | 0.447 | 0.257 |
| TENM1 (GeneID 10178) | SID442901537 | -0.46 | -0.836 | -1.45 |
| KCNMB1 (GeneID 3779) | SID442888621 | 0.741 | 1.03 | 0.299 |
| KCNT1 (GeneID 57582) | SID442887385 | 1.29 | 0.488 | 0.995 |
| KRTAP26-1 (GeneID 388818) | SID442897321 | -0.46 | -0.293 | -0.365 |
| ANTXR2 (GeneID 118429) | SID442896951 | -0.11 | -0.833 | -0.046 |
| GTF2E1 (GeneID 2960) | SID442890624 | 0.429 | 0.44 | 0.302 |
| LOC400846 (retired record) (GeneID 400846) | SID442884136 | 2.29 (active) | 2.17 | 1.27 |
| UBE2O (GeneID 63893) | SID442885536 | 2.21 | 0.592 | 1.62 |
| ZMIZ1-AS1 (GeneID 283050) | SID442900357 | -0.786 | -0.663 | -0.8 |
| BTN3A2 (GeneID 11118) | SID442894761 | -0.0987 | -0.332 | 0.137 |
| ARMC2 (GeneID 84071) | SID442890425 | -0.212 | 0.588 | 0.88 |
| OR4K15 (GeneID 81127) | SID442894666 | -0.434 | 0.223 | -0.0539 |
| LOC389650 (retired record) (GeneID 389650) | SID442900743 | -0.86 | -0.473 | -1.07 |
| CYP4X1 (GeneID 260293) | SID442901617 | -1.3 | -0.784 | -0.7 |
| SBF1 (GeneID 6305) | SID442904090 | -1.53 | -1.65 | -1.29 |
| LOC441672 (retired record) (GeneID 441672) | SID442887082 | 1.55 | 0.72 | 0.7 |
| C22orf31 (GeneID 25770) | SID442896388 | -0.098 | 0.121 | -0.825 |
| SLC25A48 (GeneID 153328) | SID442888670 | 0.919 | 0.00428 | 1.12 |
| MYEOV (GeneID 26579) | SID442892604 | -0.231 | 0.814 | -0.146 |
| KCNE4 (GeneID 23704) | SID442884529 | -2.55 (active) | -3.76 | -0.718 |
| PRDM1 (GeneID 639) | SID442886975 | 1.07 | 1.16 | 0.826 |
| LYPLA1 (GeneID 10434) | SID442884891 | 1.52 | 2.29 | 1.6 |
| OR7E86P (GeneID 442104) | SID442904372 | -1.43 | -1.77 | -1.63 |
| HOOK2 (GeneID 29911) | SID442890933 | 0.545 | 0.0432 | 0.468 |
| CEP70 (GeneID 80321) | SID442887573 | 0.93 | 0.727 | 0.992 |
| TMEFF1 (GeneID 8577) | SID442890673 | 1.78 | -0.743 | 0.113 |
| LOC391813 (GeneID 391813) | SID442891553 | 1.08 | -0.0218 | -0.243 |
| KLHL30 (GeneID 377007) | SID442901792 | -0.944 | -0.991 | -0.947 |
| IDH2 (GeneID 3418) | SID442894245 | 0.228 | -0.204 | -0.15 |
| LOC442132 (GeneID 442132) | SID442904514 | -1.59 | -1.66 | -1.79 |
| LOC440075 (retired record) (GeneID 440075) | SID442896920 | -0.373 | -0.132 | -0.476 |
| LOC387816 (retired record) (GeneID 387816) | SID442886532 | 1.42 | 0.965 | 1.02 |
| HEXD (GeneID 284004) | SID442900675 | -0.696 | -0.844 | -0.835 |
| ST3GAL6 (GeneID 10402) | SID442897368 | -0.447 | -0.625 | -0.0641 |
| AHCTF1 (GeneID 25909) | SID442885802 | 1.04 | 1.31 | 1.74 |
| TTC5 (GeneID 91875) | SID442889422 | 0.477 | 0.435 | 0.774 |
| TRIM59 (GeneID 286827) | SID442889838 | 0.448 | 0.558 | 0.501 |
| LOC440037 (retired record) (GeneID 440037) | SID442896168 | -0.291 | 0.0423 | -0.485 |
| CALML5 (GeneID 51806) | SID442886894 | 0.586 | 1.13 | 1.39 |
| TMED9 (GeneID 54732) | SID442904327 | -2.25 | -0.701 | -1.81 |
| THOC1 (GeneID 9984) | SID442896313 | -0.335 | -1.24 | 0.794 |
| SLX4 (GeneID 84464) | SID442898999 | -0.659 | -0.813 | -0.223 |
| ODR4 (GeneID 54953) | SID442887503 | 0.833 | 1.71 | 0.153 |
| ANXA1 (GeneID 301) | SID442891658 | 0.245 | 0.052 | 0.478 |
| LAMA1 (GeneID 284217) | SID442892097 | 0.0657 | 0.267 | 0.296 |
| LNX2 (GeneID 222484) | SID442890735 | 0.346 | 0.681 | 0.0992 |
| SH3TC2-DT (GeneID 255187) | SID442892974 | 0.0217 | 0.305 | -0.0213 |
| MOG (GeneID 4340) | SID442900496 | -1.09 | -0.576 | -0.637 |
| IFI44L (GeneID 10964) | SID442899779 | -1.21 | 0.429 | -1.22 |
| F12 (GeneID 2161) | SID442887373 | 0.0502 | 2.7 | 0.0316 |
| CST6 (GeneID 1474) | SID442894829 | 0.229 | -0.325 | -0.217 |
| NSMAF (GeneID 8439) | SID442898475 | -0.313 | -0.0295 | -1.17 |
| GABRR1 (GeneID 2569) | SID442904156 | -1.78 | -1.14 | -1.62 |
| LOC401034 (retired record) (GeneID 401034) | SID442895402 | 0.0612 | -0.318 | -0.241 |
| NSUN5P2 (GeneID 260294) | SID442887691 | 0.533 | 1.02 | 1.04 |
| ELMOD3 (GeneID 84173) | SID442883281 | 3.53 (active) | 3.36 | 3.49 |
| ZCCHC10 (GeneID 54819) | SID442885567 | 1.42 | 0.782 | 2.18 |
| TAF13 (GeneID 6884) | SID442887975 | 1.11 | 0.724 | 0.576 |
| C12orf71 (GeneID 728858) | SID442894766 | -0.102 | -0.249 | 0.0558 |
| SLC71A1 (GeneID 64645) | SID442900705 | -0.878 | -0.795 | -0.712 |
| CTDP1-DT (GeneID 284241) | SID442898120 | -0.687 | -0.435 | -0.269 |
| FNDC3A (GeneID 22862) | SID442897934 | -0.368 | -0.564 | -0.391 |
| PTGER1 (GeneID 5731) | SID442894993 | -0.449 | 0.153 | -0.0681 |
| SV2A (GeneID 9900) | SID442901334 | -0.693 | -0.995 | -0.964 |
| NPIPA1 (GeneID 9284) | SID442903250 | -1.2 | -1.2 | -1.36 |
| CETN2 (GeneID 1069) | SID442898511 | 0.0285 | -0.786 | -0.766 |
| CPLX4 (GeneID 339302) | SID442894811 | -0.0351 | -0.104 | -0.168 |
| TMEM150A (GeneID 129303) | SID442894327 | -0.218 | -0.176 | 0.239 |

Ordered by “robust z-score, replicate 2” (lowest first): 12 of the entries above.
| target | PubChem SID | robust z-score, replicate 1 | robust z-score, replicate 2 | robust z-score, replicate 3 |
| --- | --- | --- | --- | --- |
| KIFC3 (GeneID 3801) | SID442902680 | -0.712 | -1.42 | -1.25 |
| LYPD6 (GeneID 130574) | SID442899411 | -0.582 | -0.851 | -0.417 |
| TENM1 (GeneID 10178) | SID442901537 | -0.46 | -0.836 | -1.45 |
| ANTXR2 (GeneID 118429) | SID442896951 | -0.11 | -0.833 | -0.046 |
| SLC6A14 (GeneID 11254) | SID442898546 | -0.294 | -0.374 | -0.865 |
| KRTAP26-1 (GeneID 388818) | SID442897321 | -0.46 | -0.293 | -0.365 |
| GTF2E1 (GeneID 2960) | SID442890624 | 0.429 | 0.44 | 0.302 |
| ARK2C (GeneID 494470) | SID442890853 | 0.384 | 0.447 | 0.257 |
| KCNT1 (GeneID 57582) | SID442887385 | 1.29 | 0.488 | 0.995 |
| UBE2O (GeneID 63893) | SID442885536 | 2.21 | 0.592 | 1.62 |
| KCNMB1 (GeneID 3779) | SID442888621 | 0.741 | 1.03 | 0.299 |
| LOC400846 (retired record) (GeneID 400846) | SID442884136 | 2.29 (active) | 2.17 | 1.27 |
